Measured values published in PubChem BioAssay AID504834 (National Center for Advancing Translational Sciences (NCATS), 2011).
The campaign covered roughly 320,000 compounds. About 22,000 (6.9%) were called active. Inconclusive means that the source gave no clear call. Such entries were picked first, then a sample of the others. Calls follow the shape of the dose curve; as a rule, active = well fitted inhibition curve with a large enough effect; inconclusive = small, poorly fitted or top-dose-only effect, or another doubt; inactive = no such curve, though single readings can be large or run the other way. A potency beside an inconclusive call is a rough fit, not a confirmed value.

experiment: Primary qHTS for delayed death inhibitors of the malarial parasite plastid, 96 hour incubation; conditions: P. falciparum luciferase reporter growth; series mostly up to 28.7 µM
In short: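 Two parasite generations (96 h, 37 C, 5% CO2) of compound exposure in infected erythrocytes (0.05% parasitemia, 2% hematocrit). Luciferase-reporter P. falciparum; decreased luminescence indicates inhibited growth, aimed at apicoplast-acting delayed death.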
% is scaled to controls: 0 for no effect and ±100 for the full control effect; potency is read from the fitted curve at half-maximal effect.

| Compound | Potency | activity change, negative = inhibition |
| --- | --- | --- |
| COc1ccc(N2C(=O)C3CCCN3C2c2cccs2)cc1 (configuration not stated) | inconclusive: 10.4 µM [inhibitor, partial curve, poor fit] | – |
| CCOC(=O)N1CCN(C2CCCN(C(=O)c3cccc(N(C)C)c3)C2)CC1 (configuration not stated) | inconclusive: 13.1 µM [inhibitor, partial curve, poor fit] | – |
| CCOC(=O)c1sc2nccc(OC)c2c1N=CN(C)C | inactive | – |
| CCCCN(C/C=C/c1ccccc1OC)Cc1ccccc1 | active: 8.28 µM | – |
| c1ccc(Nc2nc(N3CCCCC3)nc(N3CCNCC3)n2)cc1 | inconclusive: 3.29 µM [inhibitor, partial curve, poor fit] | – |
| S=c1[nH]nc(-c2ccco2)n1/N=C/c1ccc(Cl)cc1 | inactive | – |
| COc1cc(C(=O)NNC(=O)C2CC2)cc(OC)c1OC | inactive | – |
| S=c1[nH]nc(-c2cccnc2)n1Cc1ccccc1 | inconclusive: 9.28 µM [inhibitor, partial curve, poor fit] | – |
| CCCc1nnc(-c2ccc(OC)cc2)o1 | inactive | – |
| COc1ccc(C(=O)CN2CCOCC2)cc1F | active: 0.657 µM | – |
| CCOC(=O)c1c(NC(=O)C(C)S(=O)(=O)c2cn(CC)c3ccccc23)sc2c1CCCC2 (configuration not stated) | inconclusive: 18.5 µM [inhibitor, single point] | – |
| N#CCCn1nc(-c2ccc(Cl)cc2)cc1Nc1ccccc1NC(=O)C(F)(F)F | active: 11.7 µM | – |
| CC(C)(C)C(=O)N1c2ccccc2CCc2ccccc21 | inconclusive: 18.5 µM [inhibitor, single point] | – |
| Cc1cc(C(=O)NC2CCCCC2C)c2ccccc2n1 (configuration not stated) | inconclusive: 18.5 µM [inhibitor, partial curve, poor fit] | – |
| O=C(/C=C/c1ccc([N+](=O)[O-])cc1)NNC(=O)C1CC1 | inactive | – |
| CCc1nnc2n1N=C(c1ccc(OC)cc1)CS2 | inconclusive: 8.28 µM [inhibitor, single point] | – |
| COc1ccc(C(=O)C2CCCN(C(=O)c3ccnn3C)C2)cc1OC (configuration not stated) | inconclusive: 13.1 µM [inhibitor, single point] | – |
| CC(CC12CC3CC(CC(C3)C1)C2)NCc1ccccc1O (configuration not stated) | active: 9.28 µM | – |
| O=C(NCC(c1ccco1)N1CCOCC1)c1ccc([N+](=O)[O-])cc1 (configuration not stated) | inactive | – |
| CCOc1cc(/C=C/c2cccc[n+]2C)ccc1O | active: 8.28 µM | – |
| O=C(CSc1ncn(-c2ccccc2)n1)Nc1nncs1 | – | inactive: 32.9% [at 1.15 µM] |
| Cc1cc(C)cc(NC2=NC3(CCCCC3)N=C(N)N2)c1 | active: 1.04 µM | – |
| Cc1cc(C)c(C2=CC(=O)C[C@H](c3ccc4c(c3)OCO4)C2)c(C)c1 | inconclusive: 1.65 µM [inhibitor, partial curve] | – |
| COc1ccccc1C(=O)NCC(=O)N/N=C/c1cc(Br)ccc1OC(=O)/C=C\c1ccco1 | inconclusive: 10.4 µM [inhibitor, single point] | – |

No new results follow: entries from further up.

| Compound | Potency | activity change, negative = inhibition |
| --- | --- | --- |
| Cc1cc(C(=O)NC2CCCCC2C)c2ccccc2n1 (configuration not stated) | inconclusive: 18.5 µM [inhibitor, partial curve, poor fit] | – |
| O=C(/C=C/c1ccc([N+](=O)[O-])cc1)NNC(=O)C1CC1 | inactive | – |
| CCc1nnc2n1N=C(c1ccc(OC)cc1)CS2 | inconclusive: 8.28 µM [inhibitor, single point] | – |
| COc1ccc(C(=O)C2CCCN(C(=O)c3ccnn3C)C2)cc1OC (configuration not stated) | inconclusive: 13.1 µM [inhibitor, single point] | – |
| CC(CC12CC3CC(CC(C3)C1)C2)NCc1ccccc1O (configuration not stated) | active: 9.28 µM | – |

The listing continues:

| Compound | Potency | activity change, negative = inhibition |
| --- | --- | --- |
| Cc1ccc(OC(C)C(=O)N(Cc2cccs2)C2CCS(=O)(=O)C2)cc1C (configuration not stated) | inconclusive: 11.7 µM [inhibitor, single point] | – |
| COc1ccc(CCNC(=O)C2CC(=O)N(c3ccc(C)cc3)C2)cc1OC (configuration not stated) | inactive | – |
| CC[C@H]1CN2CCC1C[C@H]2[C@H](O)c1ccnc2ccc(OC)cc12 (some centres not stated) | active: 0.0522 µM | – |
| C#CCn1c(O)c(N=NC(=O)CNC(=O)/C=C/c2ccccc2)c2ccccc21 | inconclusive: 18.5 µM [inhibitor, single point] | – |
| Cn1c(C(=O)OCC(=O)NCc2ccco2)cc2sccc21 | inconclusive: 5.86 µM [inhibitor, partial curve, poor fit] | – |
| CCCN=C1NC(=O)C(CC(=O)NCCc2ccc(OC)c(OC)c2)S1 (configuration not stated) | inconclusive: 18.5 µM [inhibitor, single point] | – |
| Cc1ccc(S(=O)(=O)Nc2ccc(OCC(=O)N3CCOCC3)cc2)c(C)c1NS(C)(=O)=O | inconclusive: 10.4 µM [inhibitor, single point] | – |
| COc1ccc(-n2cc(C(=O)Nc3cc([N+](=O)[O-])ccc3OC)c3ccccc3c2=O)cc1 | inconclusive: 16.5 µM [inhibitor, single point] | – |
| COc1ccc(NC(=O)CCCn2cc([N+](=O)[O-])cn2)cc1 | inactive | – |
| Cc1ccc2nc(Cl)c(CNCc3ccccc3)cc2c1 | inconclusive: 10.4 µM [inhibitor, single point] | – |
| Cc1cc(C)cc(OCC(=O)N/N=C/c2ccccn2)c1 | inactive | – |
| CCOC(=O)c1ccc(NC(=O)c2sc3nc(N4CCOCC4)c4c(c3c2N)CCCC4)cc1 | inconclusive: 3.7 µM [inhibitor, partial curve] | – |
| O=C(CCc1[nH]c2ccccc2c1Sc1ccccc1)N(CCO)CCO | inconclusive: 4.65 µM [inhibitor, partial curve, poor fit] | – |
| CCc1ccc(C(C)NC(=S)NC2CCCCC2)cc1 (configuration not stated) | inactive | – |
| N#CC1=C(N)Oc2n[nH]c(-c3ccccc3)c2C1c1cccnc1 (configuration not stated) | inactive | – |
| COc1cccc(C(=O)NCc2ccc3c(c2)cc(C)n3C)c1 | inconclusive: 0.465 µM [inhibitor, full curve, poor fit] | – |
| O=C(CSc1c2c(nc3cc(Cl)ccc13)CCCC2)NCCCN1CCOCC1 | inactive | – |
| CC(=O)N1CCc2cc(C(=O)CN3CCCCC3)ccc21 | inconclusive: 13.1 µM [inhibitor, single point] | – |
| N#Cc1ccccc1S(=O)(=O)N1CCN(C(=O)c2cc3c(s2)CCC3)CC1 | inconclusive: 11.7 µM [inhibitor, partial curve, poor fit] | – |
| CCN(CC)c1ccc(NC(=O)COC(=O)CCC(=O)c2cccs2)cc1 | inconclusive: 4.15 µM [inhibitor, single point] | – |
| CCCc1[nH]n(-c2nc3ccccc3s2)c(=O)c1C=NCCN1CCOCC1 | inconclusive: 1.17 µM [inhibitor, partial curve, poor fit] | – |
| Cc1ccc(-n2c(=O)[nH]cc(C(=O)N3CCc4ccccc43)c2=O)cc1 | inconclusive: 11.7 µM [inhibitor, single point] | – |
| CC1CC(OP(O)(=S)c2ccc(N(C)C)cc2NC(=O)c2cccs2)CC(C)(C)C1 (configuration not stated) | inactive | – |
| COc1ccc(C[C@@H]2CN3C(=NC[C@@H]3C)N2CCNC(=O)c2ccc(C)c(Br)c2)cc1 | active: 13.1 µM | – |

| Compound | Potency | activity change, negative = inhibition |
| --- | --- | --- |
| O=C(Nc1ccc2ccccc2c1)N1CCN(c2ncccc2C(F)(F)F)CC1 | inconclusive: 18.5 µM [inhibitor, single point] | – |
| COc1ccc(NC(=O)c2cc(-c3ccccc3)nc3c2c(C)nn3-c2ccccc2)c(OC)c1 | inconclusive: 18.5 µM [inhibitor, single point] | – |
| O=C(c1ccco1)N1CCN(c2cc(C(F)(F)F)nc3ncnn23)CC1 | active: 13.1 µM | – |
| CCc1cc(C(=O)N2CCCC(N3CCN(c4cccc(C(F)(F)F)c4)CC3)C2)n(C)n1 (configuration not stated) | inactive | – |
| COc1cccc(/C=C2/SC(=S)N(CCCC(=O)Nc3ccc(O)cc3)C2=O)c1 | inconclusive: 4.15 µM [inhibitor, partial curve] | – |
| CN1CCc2c(sc(/N=C/c3c[nH]c4ccccc34)c2C#N)C1 | inconclusive: 18.5 µM [inhibitor, single point] | – |
| COc1ccccc1C(=O)NCCn1cc(SCC(=O)NCc2ccco2)c2ccccc21 | inactive | – |
| O=[N+]([O-])c1ccc(COc2cccnc2)cc1 | inconclusive: 18.5 µM [inhibitor, single point] | – |
| COc1ccc2c3c([nH]c2c1)C(C)=NCC3 | inconclusive: 18.5 µM [inhibitor, single point] | – |
| CCOc1cc(-c2nc(-c3ccccc3)c(-c3cc([N+](=O)[O-])ccc3C)[nH]2)ccc1O | inconclusive: 5.22 µM [inhibitor, partial curve, poor fit] | – |
| COC(CNC(=O)C(=O)Nc1cc2c3c(c1)CCN3C(=O)CC2)OC | inactive | – |
| CCNC(=S)N/N=C/c1cn(Cc2ccc(F)cc2)c2ccccc12 | inconclusive: 11.7 µM [inhibitor, single point] | – |
| O=C(CNC(=O)c1ccccc1)OCC(=O)N1c2ccccc2Sc2ccccc21 | inconclusive: 18.5 µM [inhibitor, single point] | – |
| O=C(O)C1C2C=CC(O2)C1C(=O)Nc1ccccc1C(F)(F)F (configuration not stated) | inactive | – |
| Cc1cccc(CN2CCc3c(OCC(=O)N4CCCc5ccccc54)cccc3C2=O)c1 | inconclusive: 8.28 µM [inhibitor, single point] | – |
| CC(=O)c1c(C(C)=O)c(C)n(-c2ccc(N)cc2)c1C | inconclusive: 0.0928 µM [inhibitor, full curve, poor fit] | – |
| CC(C)c1onc(C(=O)N2CCN(c3ccc(F)cc3)CC2)c1[N+](=O)[O-] | inconclusive: 10.4 µM [inhibitor, single point] | – |
| Cn1cnc2cc(NCc3ccccc3O)ccc21 | inconclusive: 18.5 µM [inhibitor, single point] | – |
| Cc1nc(C#N)c(N/N=C/c2cccc(Cl)c2)o1 | inactive | – |
| Cc1nnc(SCC(=O)Nc2ccc3c(c2)OCO3)n(N)c1=O | inactive | – |
| CCOC(=O)N1CCN(S(=O)(=O)c2cccc3nsnc23)CC1 | inconclusive: 18.5 µM [inhibitor, single point] | – |
| Cc1[nH]nc2ncc(C(=O)c3cc(F)ccc3O)cc12 | inconclusive: 18.5 µM [inhibitor, single point] | – |
| COc1ccccc1C(=O)NCCC(=O)NCc1ccccn1 | inactive | – |
| Cc1cccc(CCNC(=O)CN(C)S(=O)(=O)c2cnc[nH]2)c1 | inconclusive: 18.5 µM [inhibitor, single point] | – |
